Data taken from PMC6733923.

The chains behind the UniProt entries cited, without tags or fusion partners.
UniProt Q05397: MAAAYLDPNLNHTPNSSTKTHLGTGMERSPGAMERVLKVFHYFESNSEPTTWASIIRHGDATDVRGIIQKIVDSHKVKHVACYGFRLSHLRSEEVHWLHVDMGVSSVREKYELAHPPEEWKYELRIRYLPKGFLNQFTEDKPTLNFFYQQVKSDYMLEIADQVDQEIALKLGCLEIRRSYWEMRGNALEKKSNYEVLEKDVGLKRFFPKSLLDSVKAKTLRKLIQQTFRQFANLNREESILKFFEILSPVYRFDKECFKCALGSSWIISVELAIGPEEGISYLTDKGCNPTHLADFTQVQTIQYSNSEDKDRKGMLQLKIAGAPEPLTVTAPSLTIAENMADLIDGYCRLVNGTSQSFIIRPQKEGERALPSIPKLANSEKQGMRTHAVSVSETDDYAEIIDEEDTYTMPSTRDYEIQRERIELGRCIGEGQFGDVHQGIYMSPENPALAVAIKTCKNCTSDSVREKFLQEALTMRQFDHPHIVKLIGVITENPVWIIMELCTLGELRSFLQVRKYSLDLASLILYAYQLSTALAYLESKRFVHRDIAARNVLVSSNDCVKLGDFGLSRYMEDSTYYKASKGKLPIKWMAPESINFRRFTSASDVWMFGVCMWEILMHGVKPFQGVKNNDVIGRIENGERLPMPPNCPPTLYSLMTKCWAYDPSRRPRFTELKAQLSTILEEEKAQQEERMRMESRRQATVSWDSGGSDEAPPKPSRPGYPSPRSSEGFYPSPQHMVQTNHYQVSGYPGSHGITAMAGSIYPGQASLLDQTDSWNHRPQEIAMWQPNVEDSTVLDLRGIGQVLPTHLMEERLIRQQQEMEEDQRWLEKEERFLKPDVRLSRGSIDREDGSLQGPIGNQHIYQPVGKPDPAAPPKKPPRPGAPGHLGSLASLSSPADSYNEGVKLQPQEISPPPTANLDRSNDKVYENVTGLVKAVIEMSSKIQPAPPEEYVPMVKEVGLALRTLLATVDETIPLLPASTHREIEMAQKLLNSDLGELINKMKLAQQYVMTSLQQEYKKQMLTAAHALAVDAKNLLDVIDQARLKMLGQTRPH

Molecular target: Focal adhesion kinase 1 (human (endogenous in HCT-116)) (UniProt Q05397)
Test: affinity purification with mass spectrometry; anti-FAK polyclonal antibody and Protein A/G agarose on 1.5 mg HCT-116 total cell lysate, cells untreated (regular IP) or stimulated with 10 ng/ml EGF for 30 min; rabbit IgG as control; 1D SDS-PAGE, in-gel trypsin digestion, nano-LC-MS/MS; the proteins of Table 2 were found only with EGF …

binding: binds
B1: ATP synthase subunit gamma, mitochondrial (protein, UniProt P36542-1 26-298)
chain: ATLKDITRRLKSIKNIQKITKSMKMVAAAKYARAERELKPARIYGLGSLALYEKADIKGPEDKKKHLLIGVSSDRGLCGAIHSSIAKQMKSEVATLTAAGKEVMLVGIGDKIRGILYRTHSDQFLVAFKEVGRKPPTFGDASVIALELLNSGYEFDEGSIIFNKFRSVISYKTEEKPIFSLNTVASADSMSIYDDIDADVLQNYQEYNLANIIYYSLKESTTSEQSARMTAMDNASKNASEMIDKLTLTFNRTRQAVITKELIEIISGAAALD

binding: binds
B2: ADP/ATP translocase 3 (protein, UniProt P12236 1-298)
chain: MTEQAISFAKDFLAGGIAAAISKTAVAPIERVKLLLQVQHASKQIAADKQYKGIVDCIVRIPKEQGVLSFWRGNLANVIRYFPTQALNFAFKDKYKQIFLGGVDKHTQFWRYFAGNLASGGAAGATSLCFVYPLDFARTRLAADVGKSGTEREFRGLGDCLVKITKSDGIRGLYQGFSVSVQGIIIYRAAYFGVYDTAKGMLPDPKNTHIVVSWMIAQTVTAVAGVVSYPFDTVRRRMMMQSGRKGADIMYTGTVDCWRKIFRDEGGKAFFKGAWSNVLRGMGGAFVLVLYDELKKVI

binding: binds
B3: Isoform 4 of Probable 28 S rRNA (cytosine(4447)-C(5))-methyltransferase (protein, UniProt P46087-4 1-845)
chain: MGRKLDPTKEKRGPGRKARKQKGAETELVRFLPAVSDENSKRLSSRARKRAAKRRLGSVEAPKTNKSPEAKPLPGKLPKGISAGAVQTAGKKGPQSLFNAPRGKKRPAPGSDEEEEEEDSEEDGMVNHGDLWGSEDDADTVDDYGADSNSEDEEEGEAAGVQWLGLGSLQPPPPGFKQFSCLSFPSSWDLQLLPIERAARKQKAREAAAGIQWSEEETEDEEEEKEVTPESGPPKVEEADGGLQINVDEEPFVLPPAGEMEQDAQAPDLQRVHKRIQDIVGILRDFGAQREEGRSRSEYLNRLKKDLAIYYSYGDFLLGKLMDLFPLSELVEFLEANEVPRPVTLRTNTLKTRRRDLAQALINRGVNLDPLGKWSKTGLVVYDSSVPIGATPEYLAGHYMLQGASSMLPVMALAPQEHERILDMCCAPGGKTSYMAQLMKNTGVILANDANAERLKSVVGNLHRLGVTNTIISHYDGRQFPKVVGGFDRVLLDAPCSGTGVISKDPAVKTNKDEKDILRCAHLQKELLLSAIDSVNATSKTGGYLVYCTCSITVEENEWVVDYALKKRNVRLVPTGLDFGQEGFTRFRERRFHPSLRSTRRFYPHTHNMDGFFIAKFKKFSNSIPQSQTGNSETATPTNVDLPQVIPKSENSSQPAKKAKGAAKTKQQLQKQQHPKKASFQKLNGISKGADSELSTVPSVTKTQASSSFQDSSQPAGKAEGIREPKVTGKLKQRSPKLQSSKKVAFLRQNAPPKGTDTQTPAVLSPSKTQATLKPKDHHQPLGRAKGVEKQQLPEQPFEKAAFQKQNDTPKGPQPPTVSPIRSSRPPPAKRKKSQSRGNSQLLLS

binding: binds
B4: Plakophilin-3 (protein, UniProt Q9Y446 1-797)
chain: MQDGNFLLSALQPEAGVCSLALPSDLQLDRRGAEGPEAERLRAARVQEQVRARLLQLGQQPRHNGAAEPEPEAETARGTSRGQYHTLQAGFSSRSQGLSGDKTSGFRPIAKPAYSPASWSSRSAVDLSCSRRLSSAHNGGSAFGAAGYGGAQPTPPMPTRPVSFHERGGVGSRADYDTLSLRSLRLGPGGLDDRYSLVSEQLEPAATSTYRAFAYERQASSSSSRAGGLDWPEATEVSPSRTIRAPAVRTLQRFQSSHRSRGVGGAVPGAVLEPVARAPSVRSLSLSLADSGHLPDVHGFNSYGSHRTLQRLSSGFDDIDLPSAVKYLMASDPNLQVLGAAYIQHKCYSDAAAKKQARSLQAVPRLVKLFNHANQEVQRHATGAMRNLIYDNADNKLALVEENGIFELLRTLREQDDELRKNVTGILWNLSSSDHLKDRLARDTLEQLTDLVLSPLSGAGGPPLIQQNASEAEIFYNATGFLRNLSSASQATRQKMRECHGLVDALVTSINHALDAGKCEDKSVENAVCVLRNLSYRLYDEMPPSALQRLEGRGRRDLAGAPPGEVVGCFTPQSRRLRELPLAADALTFAEVSKDPKGLEWLWSPQIVGLYNRLLQRCELNRHTTEAAAGALQNITAGDRRWAGVLSRLALEQERILNPLLDRVRTADHHQLRSLTGLIRNLSRNARNKDEMSTKVVSHLIEKLPGSVGEKSPPAEVLVNIIAVLNNLVVASPIAARDLLYFDGLRKLIFIKKKRDSPDSEKSSRAASSLLANLWQYNKLHRDFRAKGYRKEDFLGP

binding: binds
B5: Dolichyl-diphosphooligosaccharide–protein glycosyltransferase subunit 1 (protein, UniProt P04843 24-607)
chain: ASSEAPPLINEDVKRTVDLSSHLAKVTAEVVLAHLGGGSTSRATSFLLALEPELEARLAHLGVQVKGEDEEENNLEVRETKIKGKSGRFFTVKLPVALDPGAKISVIVETVYTHVLHPYPTQITQSEKQFVVFEGNHYFYSPYPTKTQTMRVKLASRNVESYTKLGNPTRSEDLLDYGPFRDVPAYSQDTFKVHYENNSPFLTITSMTRVIEVSHWGNIAVEENVDLKHTGAVLKGPFSRYDYQRQPDSGISSIRSFKTILPAAAQDVYYRDEIGNVSTSHLLILDDSVEMEIRPRFPLFGGWKTHYIVGYNLPSYEYLYNLGDQYALKMRFVDHVFDEQVIDSLTVKIILPEGAKNIEIDSPYEISRAPDELHYTYLDTFGRPVIVAYKKNLVEQHIQDIVVHYTFNKVLMLQEPLLVVAAFYILFFTVIIYVRLDFSITKDPAAEARMKVACITEQVLTLVNKRIGLYRHFDETVNRYKQSRDISTLNSGKKSLETEHKALTSEIALLQSRLKTEGSDLCDRVSEMQKLDAQVKELVLKSAVEAERLVAGKLKKDTYIENEKLISGKRQELVTKIDHILDAL

binding: binds
B6: Something about silencing protein 10 (protein, UniProt Q9NQZ2 1-479)
chain: MVGRSRRRGAAKWAAVRAKAGPTLTDENGDDLGLPPSPGDTSYYQDQVDDFHEARSRAALAKGWNEVQSGDEEDGEEEEEEVLALDMDDEDDEDGGNAGEEEEEENADDDGGSSVQSEAEASVDPSLSWGQRKKLYYDTDYGSKSRGRQSQQEAEEEEREEEEEAQIIQRRLAQALQEDDFGVAWVEAFAKPVPQVDEAETRVVKDLAKVSVKEKLKMLRKESPELLELIEDLKVKLTEVKDELEPLLELVEQGIIPPGKGSQYLRTKYNLYLNYCSNISFYLILKARRVPAHGHPVIERLVTYRNLINKLSVVDQKLSSEIRHLLTLKDDAVKKELIPKAKSTKPKPKSVSKTSAAACAVTDLSDDSDFDEKAKLKYYKEIEDRQKLKRKKEENSTEEQALEDQNAKRAITYQIAKNRGLTPRRKKIDRNPRVKHREKFRRAKIRRRGQVREVRKEEQRYSGELSGIRAGVKKSIKLK

binding: binds
B7: RRP12-like protein (protein, UniProt Q5JTH9-1 1-1297)
chain: MGRSGKLPSGVSAKLKRWKKGHSSDSNPAICRHRQAARSRFFSRPSGRSDLTVDAVKLHNELQSGSLRLGKSEAPETPMEEEAELVLTEKSSGTFLSGLSDCTNVTFSKVQRFWESNSAAHKEICAVLAAVTEVIRSQGGKETETEYFAALMTTMEAVESPESLAAVAYLLNLVLKRVPSPVLIKKFSDTSKAFMDIMSAQASSGSTSVLRWVLSCLATLLRKQDLEAWGYPVTLQVYHGLLSFTVHPKPKIRKAAQHGVCSVLKGSEFMFEKAPAHHPAAISTAKFCIQEIEKSGGSKEATTTLHMLTLLKDLLPCFPEGLVKSCSETLLRVMTLSHVLVTACAMQAFHSLFHARPGLSTLSAELNAQIITALYDYVPSENDLQPLLAWLKVMEKAHINLVRLQWDLGLGHLPRFFGTAVTCLLSPHSQVLTAATQSLKEILKECVAPHMADIGSVTSSASGPAQSVAKMFRAVEEGLTYKFHAAWSSVLQLLCVFFEACGRQAHPVMRKCLQSLCDLRLSPHFPHTAALDQAVGAAVTSMGPEVVLQAVPLEIDGSEETLDFPRSWLLPVIRDHVQETRLGFFTTYFLPLANTLKSKAMDLAQAGSTVESKIYDTLQWQMWTLLPGFCTRPTDVAISFKGLARTLGMAISERPDLRVTVCQALRTLITKGCQAEADRAEVSRFAKNFLPILFNLYGQPVAAGDTPAPRRAVLETIRTYLTITDTQLVNSLLEKASEKVLDPASSDFTRLSVLDLVVALAPCADEAAISKLYSTIRPYLESKAHGVQKKAYRVLEEVCASPQGPGALFVQSHLEDLKKTLLDSLRSTSSPAKRPRLKCLLHIVRKLSAEHKEFITALIPEVILCTKEVSVGARKNAFALLVEMGHAFLRFGSNQEEALQCYLVLIYPGLVGAVTMVSCSILALTHLLFEFKGLMGTSTVEQLLENVCLLLASRTRDVVKSALGFIKVAVTVMDVAHLAKHVQLVMEAIGKLSDDMRRHFRMKLRNLFTKFIRKFGFELVKRLLPEEYHRVLVNIRKAEARAKRHRALSQAAVEEEEEEEEEEEPAQGKGDSIEEILADSEDEEDNEEEERSRGKEQRKLARQRSRAWLKEGGGDEPLNFLDPKVAQRVLATQPGPGRGRKKDHGFKVSADGRLIIREEADGNKMEEEEGAKGEDEEMADPMEDVIIRNKKHQKLKHQKEAEEEELEIPPQYQAGGSGIHRPVAKKAMPGAEYKAKKAKGDVKKKGRPDPYAYIPLNRSKLNRRKKMKLQGQFKGLVKAARRGSQVGHKNRRKDRRP

binding: binds
B8: Mitochondrial ribonuclease P protein 1 (protein, UniProt Q7L0Y3 40-403)
chain: MSSKIPAVTYPKNESTPPSEELELDKWKTTMKSSVQEECVSTISSSKDEDPLAATREFIEMWRLLGREVPEHITEEELKTLMECVSNTAKKKYLKYLYTKEKVKKARQIKKEMKAAAREEAKNIKLLETTEEDKQKNFLFLRLWDRNMDIAMGWKGAQAMQFGQPLVFDMAYENYMKRKELQNTVSQLLESEGWNRRNVDPFHIYFCNLKIDGALHRELVKRYQEKWDKLLLTSTEKSHVDLFPKDSIIYLTADSPNVMTTFRHDKVYVIGSFVDKSMQPGTSLAKAKRLNLATECLPLDKYLQWEIGNKNLTLDQMIRILLCLKNNGNWQEALQFVPKRKHTGFLEISQHSQEFINRLKKAKT

binding: binds
B9: nucleolar MIF4G domain-containing protein 1 (protein, UniProt Q5C9Z4 1-860)
chain: MAASRSAGEAGPGGSQGRVVRMKRRGGRGPRRGPAGGGEKALKRLKLAVEEFVHATSEGEAPGGCEGRGAPVSFRPGGRKSRKELRKEKRHLRKARRLQRTAGPEQGPGLGGRSGAEEASGHRQDTEERARPAPSRDPSPPRKPRPSRVKAKATAATAKTRPSAAATAAARKRALLAANEEEDREIRKLERCLGLNKRKKKDGSSSVPLSFARDGLDYILGALESGKNSGLYDSSGEEEEDAGQTLPESDLESDSQDESEEEEEGDVEKEKKAQEAEAQSEDDDEDTEEEQGEEKEKGAQEKRRGKRVRFAEDEEKSENSSEDGDITDKSLCGSGEKYIPPHVRQAEETVDFKKKEELERLKKHVKGLLNRLSEPNMASISGQLEELYMAHSRKDMNDTLTSALMGACVTASAMPSRLMMEHVLLVSILHHTVGIEVGAHFLEAVVRKFDAIYKYGSEGKECDNLFTVIAHLYNFHVVQSLLIFDILKKLIGTFTEKDIELILLMLKNVGFSLRKDDALSLKELITEAQTKASGAGSEFQDQTRIRFMLETMLALKNNDMRKIPGYDPEPVEKLRKLQRALVRNAGSGSETQLRVSWDSVLSAEQTGRWWIVGSAWSGAPMIDNSHHTHLQKQLVGTVSSKILELARKQRMNTDIRRNIFCTIMTSEDFLDAFEKLLKLGLKDQQEREIIHVLMDCCLQEKTYNPFYAFLASKFCEYERRFQMTFQFSIWDKFRDLENLPATNFSNLVHLVAHLLKTKSLSLSILKVVEFSELDKPRVRFLRKVLSILLMETEVEDLSLIFTRVSDNPKLGVLREGLKLFISHFLLKNAQAHRSADEANVLREKADLATKCLQGKASLRM

Results are given in words; binding and its absence hold for the method and conditions named. In cells and extracts the contact can be indirect. Here binding means that the protein was enriched with, or labelled near, the bait; the list need not be complete. One block for each binder: values may come before it.
